Reference: publication doi:10.1101/2021.10.17.464477
These are yes or no findings as the source states them, for the method shown. In cells and extracts the contact can be indirect. Some entries that bind do so weakly or less than the wild type. Sequences can lack the tags named with a protein.

Protein sequences, listed by entry. Tags and fused reporters are not part of them.
UniProt Q9SV12: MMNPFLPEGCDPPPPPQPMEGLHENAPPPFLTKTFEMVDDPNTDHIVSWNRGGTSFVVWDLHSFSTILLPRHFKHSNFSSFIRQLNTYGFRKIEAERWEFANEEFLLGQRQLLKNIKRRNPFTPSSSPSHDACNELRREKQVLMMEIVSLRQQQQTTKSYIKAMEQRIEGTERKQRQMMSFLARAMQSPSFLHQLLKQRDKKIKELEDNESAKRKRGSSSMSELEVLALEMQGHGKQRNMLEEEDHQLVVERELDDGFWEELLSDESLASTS

Target: Heat shock factor HSFA7a, HA-tagged (Arabidopsis thaliana) (UniProt Q9SV12)
Assay: co-IP

B1: HEAT SHOCK FACTOR BINDING PROTEIN (HSBP), Myc-tagged (protein, UniProt Q8GW48 1-86)
chain: MDGHDSEDTKQSTADMTAFVQNLLQQMQTRFQTMSDSIITKIDDMGGRINELEQSINDLRAEMGVEGTPPPASKSGDEPKTPASSS
- binding: binds
